In assay [1] the target is T1, ADAP (adhesion and degranulation-promoting adapter protein), endogenous in iBMMs (mouse (endogenous in iBMMs)) (UniProt O35601).
T1 sequence: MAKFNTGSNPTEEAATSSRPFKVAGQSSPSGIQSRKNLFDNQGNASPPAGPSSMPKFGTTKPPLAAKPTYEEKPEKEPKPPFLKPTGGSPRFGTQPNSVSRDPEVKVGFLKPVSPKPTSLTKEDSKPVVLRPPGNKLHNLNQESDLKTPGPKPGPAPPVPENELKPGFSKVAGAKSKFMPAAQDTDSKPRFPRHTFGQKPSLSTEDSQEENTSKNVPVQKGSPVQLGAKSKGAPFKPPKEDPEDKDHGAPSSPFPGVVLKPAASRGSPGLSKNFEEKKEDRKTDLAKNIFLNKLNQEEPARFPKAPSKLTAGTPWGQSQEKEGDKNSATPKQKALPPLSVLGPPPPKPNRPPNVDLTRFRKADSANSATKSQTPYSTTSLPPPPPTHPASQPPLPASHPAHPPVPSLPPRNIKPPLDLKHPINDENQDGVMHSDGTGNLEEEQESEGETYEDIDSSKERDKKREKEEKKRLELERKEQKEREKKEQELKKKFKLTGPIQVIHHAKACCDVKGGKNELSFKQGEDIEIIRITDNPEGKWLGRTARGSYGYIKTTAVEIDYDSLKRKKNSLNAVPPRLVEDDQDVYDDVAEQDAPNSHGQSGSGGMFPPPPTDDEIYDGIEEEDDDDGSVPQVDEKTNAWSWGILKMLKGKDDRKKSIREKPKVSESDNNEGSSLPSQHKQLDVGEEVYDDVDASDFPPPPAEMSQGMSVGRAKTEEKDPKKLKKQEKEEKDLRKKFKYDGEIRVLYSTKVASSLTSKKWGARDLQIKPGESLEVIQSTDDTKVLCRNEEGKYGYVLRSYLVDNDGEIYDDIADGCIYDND
Briefly: co-IP; anti-ADAP immunoprecipitation from whole-cell lysates of iBMMs, mock, LPS 1 μg/ml (0, 12, 24 h) or SeV (0, 5, 10 h); lysis in 1% Triton X-100, 20 mM Tris-HCl pH 8.3, 150 mM NaCl; protein G Sepharose, 4°C; blots for RIG-I and MDA5.

The target in assay [2] is T1, ADAP (adhesion and degranulation-promoting adapter protein), endogenous in iBMMs (mouse (endogenous in iBMMs)). As to the kind of experiment: co-IP; iBMMs unstimulated or IFN-β 50 ng/ml 24 h; lysate on a discontinuous sucrose gradient (5%, 30%, 40%); fractions 5-7, 9-10 and 11-12 immunoprecipitated with anti-ADAP, blots for RIG-I and MDA5; result for RIG-I in combined fractions F11-12.

Assay [3] has the same target. Briefly: condition: only in sucrose-gradient fractions F9-10; co-IP; as a3, combined sucrose-gradient fractions F9-10 of iBMMs (resting and IFN-β), anti-ADAP immunoprecipitation, anti-RIG-I blot.

These are yes or no findings as the source states them, for the method shown. In cells and extracts the contact can be indirect. Some binding calls cover weakened binding; strength is not graded here.

B1: MDA5, endogenous in iBMMs (protein, UniProt Q8R5F7 1-1025)
chain: MSIVCSAEDSFRNLILFFRPRLKMYIQVEPVLDHLIFLSAETKEQILKKINTCGNTSAAELLLSTLEQGQWPLGWTQMFVEALEHSGNPLAARYVKPTLTDLPSPSSETAHDECLHLLTLLQPTLVDKLLINDVLDTCFEKGLLTVEDRNRISAAGNSGNESGVRELLRRIVQKENWFSTFLDVLRQTGNDALFQELTGGGCPEDNTDLANSSHRDGPAANECLLPAVDESSLETEAWNVDDILPEASCTDSSVTTESDTSLAEGSVSCFDESLGHNSNMGRDSGTMGSDSDESVIQTKRVSPEPELQLRPYQMEVAQPALDGKNIIICLPTGSGKTRVAVYITKDHLDKKKQASESGKVIVLVNKVMLAEQLFRKEFNPYLKKWYRIIGLSGDTQLKISFPEVVKSYDVIISTAQILENSLLNLESGDDDGVQLSDFSLIIIDECHHTNKEAVYNNIMRRYLKQKLRNNDLKKQNKPAIPLPQILGLTASPGVGAAKKQSEAEKHILNICANLDAFTIKTVKENLGQLKHQIKEPCKKFVIADDTRENPFKEKLLEIMASIQTYCQKSPMSDFGTQHYEQWAIQMEKKAAKDGNRKDRVCAEHLRKYNEALQINDTIRMIDAYSHLETFYTDEKEKKFAVLNDSDKSDDEASSCNDQLKGDVKKSLKLDETDEFLMNLFFDNKKMLKKLAENPKYENEKLIKLRNTILEQFTRSEESSRGIIFTKTRQSTYALSQWIMENAKFAEVGVKAHHLIGAGHSSEVKPMTQTEQKEVISKFRTGEINLLIATTVAEEGLDIKECNIVIRYGLVTNEIAMVQARGRARADESTYVLVTSSGSGVTEREIVNDFREKMMYKAINRVQNMKPEEYAHKILELQVQSILEKKMKVKRSIAKQYNDNPSLITLLCKNCSMLVCSGENIHVIEKMHHVNMTPEFKGLYIVRENKALQKKFADYQTNGEIICKCGQAWGTMMVHKGLDLPCLKIRNFVVNFKNNSPKKQYKKWVELPIRFPDLDYSEYCLYSDED
In the case of B1, the binding result in assay [1] and in assay [2] was “no binding” each time.

B2: RIG-I (retinoic acid-inducible gene I), endogenous in iBMMs (protein, UniProt Q6Q899 1-926)
chain: MTAEQRQNLQAFRDYIKKILDPTYILSYMSSWLEDEEVQYIQAEKNNKGPMEAASLFLQYLLKLQSEGWFQAFLDALYHAGYCGLCEAIESWDFQKIEKLEEHRLLLRRLEPEFKATVDPNDILSELSECLINQECEEIRQIRDTKGRMAGAEKMAECLIRSDKENWPKVLQLALEKDNSKFSELWIVDKGFKRAESKADEDDGAEASSIQIFIQEEPECQNLSQNPGPPSEASSNNLHSPLKPRNYQLELALPAKKGKNTIICAPTGCGKTFVSLLICEHHLKKFPCGQKGKVVFFANQIPVYEQQATVFSRYFERLGYNIASISGATSDSVSVQHIIEDNDIIILTPQILVNNLNNGAIPSLSVFTLMIFDECHNTSKNHPYNQIMFRYLDHKLGESRDPLPQVVGLTASVGVGDAKTAEEAMQHICKLCAALDASVIATVRDNVAELEQVVYKPQKISRKVASRTSNTFKCIISQLMKETEKLAKDVSEELGKLFQIQNREFGTQKYEQWIVGVHKACSVFQMADKEEESRVCKALFLYTSHLRKYNDALIISEDAQMTDALNYLKAFFHDVREAAFDETERELTRRFEEKLEELEKVSRDPSNENPKLRDLYLVLQEEYHLKPETKTILFVKTRALVDALKKWIEENPALSFLKPGILTGRGRTNRATGMTLPAQKCVLEAFRASGDNNILIATSVADEGIDIAECNLVILYEYVGNVIKMIQTRGRGRARDSKCFLLTSSADVIEKEKANMIKEKIMNESILRLQTWDEMKFGKTVHRIQVNEKLLRDSQHKPQPVPDKENKKLLCGKCKNFACYTADIRVVETSHYTVLGDAFKERFVCKPHPKPKIYDNFEKKAKIFCAKQNCSHDWGIFVRYKTFEIPVIKIESFVVEDIVSGVQNRHSKWKDFHFERIQFDPAEMSV
As for B2, the binding entry in assay [3] is “no binding”; in assay [1], “binds”; in assay [2] it was “binds”.

Source of the values: article PMC11111093.
